In publication PMC11786349 one finds binding data, which are given here for three substances.

Test [1] deals with TRPV1 T406A, expressed from plasmid (UniProt O35433). As to the kind of experiment: co-IP; exogenous (transfected) proteins in 293T cells; RIPA lysate, antibody on magnetic beads, western blot. For orientation: A western blot detects proteins with antibodies after separation by electrophoresis.
The target in test [2] is TRPV1 wild type, expressed from plasmid in 293T cells (UniProt O35433). The description is as above.
Another test has as its target GST-TRPV1 (1-390) (UniProt O35433). As to the kind of experiment: pull-down; GST-tagged truncated TRPV1 from E. coli purified on GST magnetic beads, combined in vitro with protein solutions derived from cells; SDS-PAGE and western blot; only the target purified.
In test [3] the target is transient receptor potential vanilloid 1 (TRPV1), endogenous in DRG neurons (rat (endogenous in DRG neurons)) (UniProt O35433). As to the kind of experiment: co-IP; endogenous proteins in DRG neurons; RIPA lysate, antibody on magnetic beads, western blot.

No constants are given. Whether binding was seen depends on the method and setting. In cells and extracts the contact can be indirect. Some results given as binding are weak or reduced against the parent protein; the word gives no strength.

For the substance “CDK5, expressed from plasmid in 293T cells (from UniProt Q03114 1-292) (enzyme)”, the binding entry in test [1] and in test [2] was “binds” throughout.

Regarding “CDK5 in the protein solution derived from cells used for the GST pulldown (from UniProt Q03114 1-292) (enzyme)”, in the test with GST-TRPV1 (1-390), the binding result was “binds”.

Regarding “cyclin-dependent kinase 5 (CDK5), endogenous in DRG neurons (from UniProt Q03114 1-292) (enzyme)”, in test [3], the binding result is listed as “binds”.
